Assay results published in US7741124B2, “Detection procedures for fibrinogen and/or fibrinogen derivatives” (priority 2003, dated 2010).

System: β2 fraction (fibrinogen) of plasma
Experiment: Electrophoresis of plasma that had been incubated with vancomycin
Assay type: biochemical
Protocol: 950 μl P-Pool were incubated with 50 μl 0-200 mM (0-10 mM final conc.) vancomycin for 5 min (RT). Then electrophoreses of the samples and of the solubilized precipitate of 2.10. were performed and the total protein concentrations in the treated samples were determined.

Question: With CN[C@H](CC(C)C)C(=O)N[C@H]1C(=O)N[C@@H](CC(N)=O)C(=O)N[C@H]2C(=O)N[C@H]3C(=O)N[C@H](C(=O)N[C@H](C(=O)O)c4cc(O)cc(O)c4-c4cc3ccc4O)[C@H](O)c3ccc(c(Cl)c3)Oc3cc2cc(c3O[C@@H]2O[C@H](CO)[C@@H](O)[C@H](O)[C@H]2O[C@H]2C[C@](C)(N)[C@H](O)[C@H](C)O2)Oc2ccc(cc2Cl)[C@H]1O [vancomycin] as the compound, how does the total protein concentration (0.29 mM vancomycin) read?
Answer: Its total protein concentration is 59.1 g/L.

Question: And the total protein concentration (0.44 mM vancomycin)?
Answer: Its total protein concentration is 58.6 g/L.

Question: What about the total protein concentration (0.66 mM vancomycin) of the same compound?
Answer: Its total protein concentration is 59.1 g/L.

Question: What about the total protein concentration (0.99 mM vancomycin) of the same compound?
Answer: Its total protein concentration is 58.4 g/L.

Question: What about the total protein concentration (1.48 mM vancomycin) of the same compound?
Answer: The total protein concentration was 57.0 g/L.

Question: And the total protein concentration (2.22 mM vancomycin)?
Answer: The total protein concentration was 57.8 g/L.

Question: What about the “β2 peak, in words” value (5 mM vancomycin in plasma) of the same compound?
Answer: Its value is “disappears completely”.
